# Data source: PubChem BioAssay AID1224828 (NIAID, 2016)
# Assay: 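Knock-downs that increase or decrease LPS-induced p65 nuclear translocation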 (primary screen)
# System: mouse RAW264.7 G9 macrophage reporter cells (GFP-p65, Tnf promoter-mCherry)
# Reagents: siRNA pool against mouse genes, 100 nM
# Time to read-out: 2 days siRNA transfection, then 40 min LPS before fixation
# Treatment: LPS (Salmonella minnesota R595) at 10 ng/ml
# Read-out: 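Microscopy ratio of nuclear to perinuclear-ring GFP-p65 signal, scaled to the plate median; gene score is the average of two replicate robust z-scores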
# Scale: p65 translocation robust z-score: higher = more nuclear NF-kappaB p65 after LPS than the plate median; nuclear/cytoplasmic p65 ratio: higher = more nuclear NF-kappaB p65
# Rule for the call: 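Active if robust z is above 3.3 (negative regulators) or below -1.56, the Tlr4 control median (positive regulators); activity score 50 or more; control wells not called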
# Meaning of the calls: active = hit (p65 shift raised or lowered); inactive = no clear change
# The whole screen tested about 17,000 reagents; below is a part drawn at random. In the full data, 762 (4.5%) got an active call. 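Active calls include both raised and lowered p65 entry, mostly lowered; wells with fewer than 50 cells lack a z-score.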 Raw values are not corrected between plates. The numbers tell different reagents against one gene apart. Some reagents were tested in more than one well and are listed for each. Reagent sequences are not shown.
p65 translocation robust z-score,"nuclear/cytoplasmic p65 ratio, rep 1","nuclear/cytoplasmic p65 ratio, rep 2",low cell count flag,activity call,gene,reagent
-1.31,1.16,1.32,enough cells to score,inactive,Rassf8,1
0.94,1.79,1.46,enough cells to score,inactive,Krt31 (keratin 31),1
-0.01,1.44,1.2,enough cells to score,inactive,Rpgr (retinitis pigmentosa GTPase regulator),1
-0.97,1.39,1.37,enough cells to score,inactive,"Rap1gds1 (RAP1, GTP-GDP dissociation stimulator 1)",1
-1.26,1.19,1.13,enough cells to score,inactive,Rps27 (ribosomal protein S27),1
-0.74,1.53,1.27,enough cells to score,inactive,Dsc2 (desmocollin 2),1
2.24,1.65,1.95,enough cells to score,inactive,Slc10a6,1
,1.28,1.67,fewer than 50 cells per well; well left out of scoring,inactive,9030612E09Rik (RIKEN cDNA 9030612E09 gene),1
,1.94,1.19,fewer than 50 cells per well; well left out of scoring,inactive,Slc37a4,1
-0.05,1.37,1.21,enough cells to score,inactive,"Lzts3 (leucine zipper, putative tumor suppressor family member 3)",1
0.43,1.52,1.33,enough cells to score,inactive,Echdc3 (enoyl Coenzyme A hydratase domain containing 3),1
-0.1,1.46,1.61,enough cells to score,inactive,Adora3 (adenosine A3 receptor),1
-0.59,1.82,1.34,enough cells to score,inactive,Adora3 (adenosine A3 receptor),2
0.77,1.54,1.64,enough cells to score,inactive,"Ccdc121rt1 (coiled-coil domain containing 121, retrogene 1)",1
,1.14,1.48,fewer than 50 cells per well; well left out of scoring,inactive,"Fam161b (family with sequence similarity 161, member B)",1
-0.67,1.57,1.31,enough cells to score,inactive,"Agtr2 (angiotensin II receptor, type 2)",1
-0.08,1.51,1.55,enough cells to score,inactive,"Agtr2 (angiotensin II receptor, type 2)",1
0.82,1.46,1.33,enough cells to score,inactive,"Prl8a8 (prolactin family 8, subfamily a, member 81)",1
-0.47,1.53,1.33,enough cells to score,inactive,Kctd4 (potassium channel tetramerisation domain containing 4),1
-0.31,1.7,1.57,enough cells to score,inactive,Myo18a (myosin XVIIIA),1
0.64,1.96,1.5,enough cells to score,inactive,Obp1a (odorant binding protein IA),1
1.73,1.9,1.87,enough cells to score,inactive,Luzp1 (leucine zipper protein 1),1
-2.31,1.19,1.26,enough cells to score,active,Fstl4 (follistatin-like 4),1
0.09,1.56,1.51,enough cells to score,inactive,Tollip (toll interacting protein),1
-2.08,1.16,0.993,enough cells to score,active,Epdr1 (ependymin related 1),1
0.44,1.67,1.57,enough cells to score,inactive,Epdr1 (ependymin related 1),2
-1.16,1.4,1.66,enough cells to score,inactive,Ces4a (carboxylesterase 4A),1
0.82,1.66,1.61,enough cells to score,inactive,Rpgrip1 (retinitis pigmentosa GTPase regulator interacting protein 1),1
-1.23,1.34,1.26,enough cells to score,inactive,"Fam177a (family with sequence similarity 177, member A)",1
0.28,1.57,1.35,enough cells to score,inactive,Ccnf (cyclin F),1
0.72,1.76,1.69,enough cells to score,inactive,Or5m10b (olfactory receptor family 5 subfamily M member 10B),1
1.14,1.44,1.69,enough cells to score,inactive,Ccdc42 (coiled-coil domain containing 42),1
-0.18,1.63,1.54,enough cells to score,inactive,"Brca2 (breast cancer 2, early onset)",1
-0.39,1.34,1.42,enough cells to score,inactive,Trub1 (TruB pseudouridine (psi) synthase family member 1),1
-0.14,1.59,1.43,enough cells to score,inactive,Clk4 (CDC like kinase 4),1
-0.43,1.43,1.28,enough cells to score,inactive,Lrrc31 (leucine rich repeat containing 31),1
-0.04,1.65,1.57,enough cells to score,inactive,"Blm (Bloom syndrome, RecQ like helicase)",1
1.56,1.9,1.58,enough cells to score,inactive,Or13c7 (olfactory receptor family 13 subfamily C member 7),1
0.16,1.87,1.56,enough cells to score,inactive,Nap1l1 (nucleosome assembly protein 1-like 1),1
-0.28,1.62,1.7,enough cells to score,inactive,Ccdc136 (coiled-coil domain containing 136),1

6 of these entries in another layout:
Ces4a (carboxylesterase 4A) — p65 translocation robust z-score = -1.16; nuclear/cytoplasmic p65 ratio, rep 1 = 1.4; nuclear/cytoplasmic p65 ratio, rep 2 = 1.66; low cell count flag = enough cells to score; activity call = inactive
Rpgrip1 (retinitis pigmentosa GTPase regulator interacting protein 1) — p65 translocation robust z-score = 0.82; nuclear/cytoplasmic p65 ratio, rep 1 = 1.66; nuclear/cytoplasmic p65 ratio, rep 2 = 1.61; low cell count flag = enough cells to score; activity call = inactive
Fam177a (family with sequence similarity 177, member A) — p65 translocation robust z-score = -1.23; nuclear/cytoplasmic p65 ratio, rep 1 = 1.34; nuclear/cytoplasmic p65 ratio, rep 2 = 1.26; low cell count flag = enough cells to score; activity call = inactive
Ccnf (cyclin F) — p65 translocation robust z-score = 0.28; nuclear/cytoplasmic p65 ratio, rep 1 = 1.57; nuclear/cytoplasmic p65 ratio, rep 2 = 1.35; low cell count flag = enough cells to score; activity call = inactive
Or5m10b (olfactory receptor family 5 subfamily M member 10B) — p65 translocation robust z-score = 0.72; nuclear/cytoplasmic p65 ratio, rep 1 = 1.76; nuclear/cytoplasmic p65 ratio, rep 2 = 1.69; low cell count flag = enough cells to score; activity call = inactive
Ccdc42 (coiled-coil domain containing 42) — p65 translocation robust z-score = 1.14; nuclear/cytoplasmic p65 ratio, rep 1 = 1.44; nuclear/cytoplasmic p65 ratio, rep 2 = 1.69; low cell count flag = enough cells to score; activity call = inactive
